In the supplement of paper PMC4604168 (melanoma cell lines):
This is one part of the list. Single values are uncertain, as repeats are few or missing.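 Imaging used 1,536-well plates; nuclei positive for cleaved PARP by antibody were divided by total DNA-stained nuclei to yield the apoptosis fraction. Doses for screening kept most cells viable, and cell lines differ markedly in resting and induced cleaved-PARP levels.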

Experiments:
Assay in all cases: cleaved PARP positive nuclei fraction relative to DMSO control; melanoma cells; higher = more apoptosis
Conditions in all cases: library dose: low library concentration; 72 h
WM115 = test system: WM115
WM1716 = test system: WM1716
WM1745 = test system: WM1745
WM3526 = test system: WM3526
WM3619 = test system: WM3619
WM451Lu = test system: WM451Lu

Row | Compound | cleaved PARP positive nuclei fraction (WM115) [%] | cleaved PARP positive nuclei fraction (WM1716) [%] | cleaved PARP positive nuclei fraction (WM1745) [%] | cleaved PARP positive nuclei fraction (WM3526) [%] | cleaved PARP positive nuclei fraction (WM3619) [%] | cleaved PARP positive nuclei fraction (WM451Lu) [%]
1 | CC1(C)CCC(c2ccc(Cl)cc2)=C(CN2CCN(c3ccc(C(=O)NS(=O)(=O)c4ccc(N[C@H](CCN5CCOCC5)CSc5ccccc5)c(S(=O)(=O)C(F)(F)F)c4)cc3)CC2)C1 + CC(C)CCN1c2nc(Nc3cc(F)c(O)c(F)c3)ncc2N(C)C(=O)C1C [BID1870] (first compound 0.4 µM, partner dose 0.2 µM) | 412 | 773 | 250 | 102 | 295 | 78.3
2 | C[C@@H](N)c1ccc(C(=O)Nc2ccnc3[nH]ccc23)cc1 + N#Cc1c(O)c2c(-c3ccc(-c4ccccc4O)cc3)csc2[nH]c1=O [A769662] (first compound 0.4 µM, partner dose 2 µM) | 63 | 260 | 103 | 224 | 98.1 | 107
3 | CS(=O)(=O)c1ccc(C(=O)Nc2ccc(Cl)c(-c3ccccn3)c2)c(Cl)c1 [vismodegib] + C=CCn1c(=O)c2cnc(Nc3ccc(N4CCN(C)CC4)cc3)nc2n1-c1cccc(C(C)(C)O)n1 [MK1775] (first compound 1 µM, partner dose 0.02 µM) | 163 | 180 | 109 | 62 | 112 | 64.3
4 | CS(=O)(=O)c1ccc(C(=O)Nc2ccc(Cl)c(-c3ccccn3)c2)c(Cl)c1 [vismodegib] + NC(=O)Nc1cc(-c2cccc(F)c2)sc1C(=O)N[C@H]1CCCNC1 [AZD7762] (first compound 1 µM, partner dose 0.02 µM) | 209 | 104 | 88.2 | 67.8 | 159 | 60
5 | Cn1cnc2c(F)c(Nc3ccc(Br)cc3Cl)c(C(=O)NOCCO)cc21 [selumetinib] + c1cc(-c2cnn3cc(-c4ccc(OCCN5CCCCC5)cc4)cnc23)ccn1 [Dorsomorphin] (first compound 0.015 µM, partner dose 0.4 µM) | 66.8 | 78.4 | 103 | 114 | 101 | 146
6 | CC1(C)CCC(c2ccc(Cl)cc2)=C(CN2CCN(c3ccc(C(=O)NS(=O)(=O)c4ccc(N[C@H](CCN5CCOCC5)CSc5ccccc5)c(S(=O)(=O)C(F)(F)F)c4)cc3)CC2)C1 + OCc1c[nH]c2ccccc12 [Indole-3-carbinol] (first compound 0.4 µM, partner dose 0.8 µM) | 239 | 113 | 841 | 45.4 | 186 | 30.3
7 | CS(=O)(=O)c1ccc(C(=O)Nc2ccc(Cl)c(-c3ccccn3)c2)c(Cl)c1 [vismodegib] + CC(C)(C)c1cnc(CSc2cnc(NC(=O)C3CCNCC3)s2)o1 [SNS-032] (first compound 1 µM, partner dose 0.01 µM) | 89.7 | 216 | 95.2 | 36.8 | 99.3 | 64.2
8 | NC1(c2ccc(-c3nc4ccn5c(=O)[nH]nc5c4cc3-c3ccccc3)cc2)CCC1 + CO[C@H]1C[C@@H]2CC[C@@H](C)[C@@](O)(O2)C(=O)C(=O)N2CCCC[C@H]2C(=O)O[C@H]([C@H](C)C[C@@H]2CC[C@@H](OCCO)[C@H](OC)C2)CC(=O)[C@H](C)/C=C(\C)[C@@H](O)[C@@H](OC)C(=O)[C@H](C)C[C@H](C)/C=C/C=C/C=C/1C [everolimus] (first compound 0.4 µM, partner dose 0.02 µM) | 338 | 536 | 218 | 313 | 151 | 210
9 | C[C@@H](N)c1ccc(C(=O)Nc2ccnc3[nH]ccc23)cc1 + CN1CCN(c2ccc3nc(-c4c(N)c5c(F)cccc5[nH]c4=O)[nH]c3c2)CC1 [Dovitinib] (first compound 0.4 µM, partner dose 0.1 µM) | 41.5 | 127 | 145 | 80.4 | 109 | 56.2
10 | CC(=O)O[C@@]12CO[C@@H]1C[C@H](O)[C@@]1(C)C(=O)[C@H](O)C3=C(C)[C@@H](OC(=O)[C@H](O)[C@@H](NC(=O)OC(C)(C)C)c4ccccc4)C[C@@](O)([C@@H](OC(=O)c4ccccc4)[C@H]21)C3(C)C [Docetaxel] + COC(=O)c1sccc1S(=O)(=O)Nc1ccc(Nc2ccccc2)cc1OC [GSK0660] (first compound 0.0001 µM, partner dose 1 µM) | 190 | 197 | 143 | 223 | 114 | 331
11 | C[C@]1(O)C[C@@H](c2nc(-c3ccc4ccc(-c5ccccc5)nc4c3)c3c(N)nccn32)C1 + CS(=O)(=O)c1ccc(C(=O)Nc2ccc(Cl)c(-c3ccccn3)c2)c(Cl)c1 [vismodegib] (first compound 0.4 µM, partner dose 1 µM) | 154 | 64.9 | 237 | 94.7 | 102 | 150

Taken from above.
In cleaved PARP positive nuclei fraction (WM3526) [%], CC1(C)CCC(c2ccc(Cl)cc2)=C(CN2CCN(c3ccc(C(=O)NS(=O)(=O)c4ccc(N[C@H](CCN5CCOCC5)CSc5ccccc5)c(S(=O)(=O)C(F)(F)F)c4)cc3)CC2)C1 + OCc1c[nH]c2ccccc12 [Indole-3-carbinol] (first compound 0.4 µM, partner dose 0.8 µM) has 45.4
In cleaved PARP positive nuclei fraction (WM1716) [%], CS(=O)(=O)c1ccc(C(=O)Nc2ccc(Cl)c(-c3ccccn3)c2)c(Cl)c1 [vismodegib] + C=CCn1c(=O)c2cnc(Nc3ccc(N4CCN(C)CC4)cc3)nc2n1-c1cccc(C(C)(C)O)n1 [MK1775] (first compound 1 µM, partner dose 0.02 µM) has 180
